PubChem BioAssay AID504808 – Drosophila RNAi Screening Center – 2011
Purpose: 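Chromatin factors that keep E2F targets switched off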 (primary screen). System: Drosophila S2 cells. Reagent: long dsRNA against Drosophila genes. Measurement: 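Dual luciferase plate measurements; E2F-specific signal taken as firefly over Renilla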. Scale: E2F firefly: higher = more E2F reporter activity; Renilla normaliser: higher = more normaliser reporter signal. Active means: 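Called active if the normalised E2F reporter went up by over 50%; the cutoff is arbitrary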.
In all, the deposit lists about 21,000 reagents; below is an unselected part of those with a known target gene and a result. Over the whole deposit, 18 (0.084%) are marked active. 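Raw counts without plate normalisation, one of two replicates; the ratio scores behind the calls were not deposited.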 Reagents against one gene are numbered here. Not given: the amount of reagent, the time to read-out.

Knock-down of CG32264 #1 came out at: E2F firefly, rep 1 = 93301; Renilla normaliser, rep 1 = 3568; inactive.
After knock-down of CG32264 #2, the record shows E2F firefly, rep 1 = 91214; Renilla normaliser, rep 1 = 4307; inactive.
CG32264 #3 scored E2F firefly, rep 1 = 73545; Renilla normaliser, rep 1 = 3785; inactive.
Silencing of CG32264 #4 gave: E2F firefly, rep 1 = 98012; Renilla normaliser, rep 1 = 4479; inactive.
For CG32264 #5, the entry reads E2F firefly, rep 1 = 82258; Renilla normaliser, rep 1 = 3338; inactive.
Depletion of Obp8a (Odorant-binding protein 8a) came out at: E2F firefly, rep 1 = 1.34e5; Renilla normaliser, rep 1 = 5797; inactive.
For sNPF (short neuropeptide F precursor) the deposit lists E2F firefly, rep 1 = 99176; Renilla normaliser, rep 1 = 4323; inactive.
With knock-down of Kap3 (Kinesin associated protein 3), the screen gave E2F firefly, rep 1 = 8062; Renilla normaliser, rep 1 = 676; inactive.
For DCAF12 (DDB1 and CUL4 associated factor 12), the values are E2F firefly, rep 1 = 63005; Renilla normaliser, rep 1 = 3351; inactive.
Silencing of Sf3b2 (Splicing factor 3b subunit 2) resulted in: E2F firefly, rep 1 = 69033; Renilla normaliser, rep 1 = 4182; inactive.
CG16717 scored E2F firefly, rep 1 = 1.18e5; Renilla normaliser, rep 1 = 7000; inactive.
Knock-down of CG31360 resulted in: E2F firefly, rep 1 = 82850; Renilla normaliser, rep 1 = 3211; inactive.
For CG12857 the deposit lists E2F firefly, rep 1 = 99013; Renilla normaliser, rep 1 = 4541; inactive.
Against CG9951, the values are E2F firefly, rep 1 = 77161; Renilla normaliser, rep 1 = 3202; inactive.
After knock-down of Tmep (Transmembrane endosomal protein), the screen gave E2F firefly, rep 1 = 67674; Renilla normaliser, rep 1 = 3749; inactive.
Knock-down of Idgf3 (Imaginal disc growth factor 3) came out at: E2F firefly, rep 1 = 82020; Renilla normaliser, rep 1 = 3765; inactive.
After knock-down of CG7542 the results were E2F firefly, rep 1 = 1.56e5; Renilla normaliser, rep 1 = 6876; inactive.
After knock-down of His3.3B (Histone H3.3B) #1, the screen gave E2F firefly, rep 1 = 89086; Renilla normaliser, rep 1 = 6943; inactive.
His3.3B (Histone H3.3B) #2 gave E2F firefly, rep 1 = 45757; Renilla normaliser, rep 1 = 12293; inactive.
Silencing of CG33099 gave: E2F firefly, rep 1 = 65225; Renilla normaliser, rep 1 = 3168; inactive.
Against ATPsynD (ATP synthase, subunit D) the deposit lists E2F firefly, rep 1 = 1.03e5; Renilla normaliser, rep 1 = 8467; inactive.
Knock-down of Ndfip (Nedd4 family interacting protein) gave: E2F firefly, rep 1 = 73200; Renilla normaliser, rep 1 = 3430; inactive.
CG34458 scored E2F firefly, rep 1 = 1.45e5; Renilla normaliser, rep 1 = 4806; inactive.
CG16995 scored E2F firefly, rep 1 = 1.59e5; Renilla normaliser, rep 1 = 6427; inactive.
Depletion of CG14329 gave: E2F firefly, rep 1 = 96494; Renilla normaliser, rep 1 = 5162; inactive.
Nup44A (Nucleoporin at 44A) gave E2F firefly, rep 1 = 2732; Renilla normaliser, rep 1 = 201; inactive.
Depletion of Cdc37 (Cell division cycle 37) came out at: E2F firefly, rep 1 = 90488; Renilla normaliser, rep 1 = 3452; inactive.
Silencing of CG3511 came out at: E2F firefly, rep 1 = 81398; Renilla normaliser, rep 1 = 3462; inactive.

Look-ups from the entries so far:
Tmep (Transmembrane endosomal protein), Outcome: inactive
CG34458, Outcome = inactive
Under “Outcome”, CG32264 #2 has inactive
CG9951, Outcome = inactive
